Holding throughout (assay): FRET or BRET
A general note: BRET reads energy transfer from a luciferase to a nearby fluorophore.

Protein sequences, listed by entry. Tags and fused reporters are not part of them.
UniProt P04150: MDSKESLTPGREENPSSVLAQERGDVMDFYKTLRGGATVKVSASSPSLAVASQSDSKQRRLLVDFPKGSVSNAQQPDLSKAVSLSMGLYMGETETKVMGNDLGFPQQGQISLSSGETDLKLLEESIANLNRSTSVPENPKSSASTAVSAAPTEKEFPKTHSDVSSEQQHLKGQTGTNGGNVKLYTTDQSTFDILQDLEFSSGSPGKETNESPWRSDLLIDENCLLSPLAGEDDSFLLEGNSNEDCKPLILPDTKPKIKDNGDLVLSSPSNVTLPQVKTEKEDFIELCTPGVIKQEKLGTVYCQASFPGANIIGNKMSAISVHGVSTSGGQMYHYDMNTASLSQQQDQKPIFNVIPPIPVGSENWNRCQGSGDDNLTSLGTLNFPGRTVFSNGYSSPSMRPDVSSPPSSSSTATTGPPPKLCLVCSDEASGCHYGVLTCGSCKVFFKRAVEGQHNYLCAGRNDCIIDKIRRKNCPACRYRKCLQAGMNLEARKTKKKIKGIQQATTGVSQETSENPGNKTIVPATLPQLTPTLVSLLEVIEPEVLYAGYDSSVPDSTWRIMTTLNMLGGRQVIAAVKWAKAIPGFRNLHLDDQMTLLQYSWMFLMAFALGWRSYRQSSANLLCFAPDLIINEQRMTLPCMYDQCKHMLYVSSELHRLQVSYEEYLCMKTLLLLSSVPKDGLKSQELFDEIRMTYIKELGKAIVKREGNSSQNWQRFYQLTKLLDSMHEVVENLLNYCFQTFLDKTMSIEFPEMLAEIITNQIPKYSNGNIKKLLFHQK
UniProt P15090: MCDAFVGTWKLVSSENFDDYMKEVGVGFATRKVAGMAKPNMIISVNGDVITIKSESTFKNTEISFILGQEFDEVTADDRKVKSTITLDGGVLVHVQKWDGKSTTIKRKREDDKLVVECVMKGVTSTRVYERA

For experiment [1], the target named is GR-dsRed (human glucocorticoid receptor, α sub-type, fused to dsRed fluorescent protein) (human) (UniProt P04150).
Experiment [2] shares this target. This is another data set of the same source.
Experiment [3] has the same target. This is another data set of the same source.

Like-named read-outs stand apart in the source and are kept apart here. No constants are given. Whether binding was seen depends on the method and setting. Binding seen in cells or lysates may run through a third protein. Some results given as binding are weak or reduced against the parent protein; the word gives no strength. For some of these results: Sequences can lack the tags named with a protein.

For the molecule “GFP-FABP4 (human fatty acid binding protein 4, GFP-tagged) (from UniProt P15090 1-132)”, the binding entry in experiment [1] is on record as “no binding (condition: in the cytosol)”; in experiment [2], “binds”.

B1: GFP-FABP1 (human fatty acid binding protein 1, GFP-tagged) (protein, UniProt P07148 1-127)
chain: MSFSGKYQLQSQENFEAFMKAIGLPEELIQKGKDIKGVSEIVQNGKHFKFTITAGSKVIQNEFTVGEECELETMTGEKVKTVVQLEGDNKLVTTFKNIKSVTELNGDIITNTMTLGDIVFKRISKRI
In the case of B1, the binding result in experiment [3] is “no binding (condition: in the cytosol)”; in experiment [2], “binds”.

(Values after paper doi:10.1101/2021.07.02.450968.)
